According to PMC10867109:
No constants are given. Whether binding was seen depends on the method and setting. Binding seen in cells or lysates may run through a third protein. These calls come from enrichment with a bait or labelling near it, and not all partners need be listed.

Chains of the proteins cited; added tags and fusions are not shown.
UniProt Q01105: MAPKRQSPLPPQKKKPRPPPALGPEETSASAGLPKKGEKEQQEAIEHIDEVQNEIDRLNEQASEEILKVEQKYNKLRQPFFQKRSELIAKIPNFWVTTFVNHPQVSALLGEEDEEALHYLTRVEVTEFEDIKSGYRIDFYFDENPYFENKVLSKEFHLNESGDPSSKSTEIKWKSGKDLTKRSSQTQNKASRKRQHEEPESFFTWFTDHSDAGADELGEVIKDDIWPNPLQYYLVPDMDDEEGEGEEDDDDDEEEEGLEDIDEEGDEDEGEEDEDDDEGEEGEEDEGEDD
UniProt Q13185: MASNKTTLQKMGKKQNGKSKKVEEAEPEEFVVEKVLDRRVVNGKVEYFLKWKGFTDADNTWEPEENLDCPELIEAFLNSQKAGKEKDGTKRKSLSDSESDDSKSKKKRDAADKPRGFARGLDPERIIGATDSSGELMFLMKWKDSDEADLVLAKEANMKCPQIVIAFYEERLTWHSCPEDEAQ
UniProt Q13263: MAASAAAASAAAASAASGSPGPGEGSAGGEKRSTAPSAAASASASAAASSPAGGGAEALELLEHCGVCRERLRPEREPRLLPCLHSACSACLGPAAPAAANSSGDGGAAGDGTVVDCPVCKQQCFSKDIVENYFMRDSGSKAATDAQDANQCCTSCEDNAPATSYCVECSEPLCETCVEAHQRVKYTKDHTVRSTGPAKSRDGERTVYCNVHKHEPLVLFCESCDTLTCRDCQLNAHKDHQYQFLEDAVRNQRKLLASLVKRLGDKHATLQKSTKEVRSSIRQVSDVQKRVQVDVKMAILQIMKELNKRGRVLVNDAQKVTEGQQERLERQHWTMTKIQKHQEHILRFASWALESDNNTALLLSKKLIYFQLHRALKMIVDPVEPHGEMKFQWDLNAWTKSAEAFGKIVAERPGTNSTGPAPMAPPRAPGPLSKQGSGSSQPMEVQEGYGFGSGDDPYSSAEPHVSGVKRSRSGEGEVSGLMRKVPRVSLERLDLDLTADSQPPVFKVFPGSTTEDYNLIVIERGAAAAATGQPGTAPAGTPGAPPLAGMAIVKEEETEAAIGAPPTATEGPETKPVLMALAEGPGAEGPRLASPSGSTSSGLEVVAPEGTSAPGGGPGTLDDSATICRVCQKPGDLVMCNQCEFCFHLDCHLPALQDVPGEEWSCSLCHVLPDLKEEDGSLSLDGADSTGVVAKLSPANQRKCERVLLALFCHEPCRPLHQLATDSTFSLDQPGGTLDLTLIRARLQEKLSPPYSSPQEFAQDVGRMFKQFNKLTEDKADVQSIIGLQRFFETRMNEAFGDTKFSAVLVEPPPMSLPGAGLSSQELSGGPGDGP

B1: zinc finger and BTB domain-containing protein 11 (ZBTB11), endogenous (protein, UniProt O95625 1-1053)
chain: MSSEESYRAILRYLTNEREPYAPGTEGNVKRKIRKAAACYVVRGGTLYYQRRQRHRKTFAELEVVLQPERRRDLIEAAHLGPGGTHHTRHQTWHYLSKTYWWRGILKQVKDYIKQCSKCQEKLDRSRPISDVSEMLEELGLDLESGEESNESEDDLSNFTSSPTTASKPAKKKPVSKHELVFVDTKGVVKRSSPKHCQAVLKQLNEQRLSNQFCDVTLLIEGEEYKAHKSVLSANSEYFRDLFIEKGAVSSHEAVVDLSGFCKASFLPLLEFAYTSVLSFDFCSMADVAILARHLFMSEVLEICESVHKLMEEKQLTVYKKGEVQTVASTQDLRVQNGGTAPPVASSEGTTTSLPTELGDCEIVLLVNGELPEAEQNGEVGRQPEPQVSSEAESALSSVGCIADSHPEMESVDLITKNNQTELETSNNRENNTVSNIHPKLSKENVISSSPEDSGMGNDISAEDICAEDIPKHRQKVDQPLKDQENLVASTAKTDFGPDDDTYRSRLRQRSVNEGAYIRLHKGMEKKLQKRKAVPKSAVQQVAQKLVQRGKKMKQPKRDAKENTEEASHKCGECGMVFQRRYALIMHKLKHERARDYKCPLCKKQFQYSASLRAHLIRHTRKDAPSSSSSNSTSNEASGTSSEKGRTKREFICSICGRTLPKLYSLRIHMLKHTGVKPHACQVCGKTFIYKHGLKLHQSLHQSQKQFQCELCVKSFVTKRSLQEHMSIHTGESKYLCSVCGKSFHRGSGLSKHFKKHQPKPEVRGYHCTQCEKSFFEARDLRQHMNKHLGVKPFQCQFCDKCYSWKKDWYSHVKSHSVTEPYRCNICGKEFYEKALFRRHVKKATHGKKGRAKQNLERVCEKCGRKFTQLREYRRHMNNHEGVKPFECLTCGVAWADARSLKRHVRTHTGERPYVCPVCSEAYIDARTLRKHMTKFHRDYVPCKIMLEKDTLQFHNQGTQVAHAVSILTAGMQEQESSGPQELETVVVTGETMEALEAVAATEEYPSVSTLSDQSIMQVVNYVLAQQQGQKLSEVAEAIQTVKVEVAHISGGE

target: Flag-HA-tagged SET (UniProt Q01105); assay: affinity purification with mass spectrometry; nuclear fraction of H1299-FH-SET stable cells (control H1299-EV), salt adjusted to 100 mM, tandem precipitation with Flag M2 beads and HA beads, elution with 0.1% TFA, SDS-PAGE bands digested with trypsin, LC-MS/MS

binding, binds:
CBX3 (from UniProt Q13185 1-183), transcription intermediary factor 1-beta (TRIM28) (from UniProt Q13263 1-835), B1
